Laboratory results: doi:10.1101/2023.07.06.548030
Results are given in words; binding and its absence hold for the method and conditions named. Binding can be weak; no strength is given.

The chains behind the UniProt entries cited, without tags or fusion partners. Where a name states a change or a piece, a line headed by the entry shows the natural chain unless it says otherwise.
UniProt A0A0H3C9D4: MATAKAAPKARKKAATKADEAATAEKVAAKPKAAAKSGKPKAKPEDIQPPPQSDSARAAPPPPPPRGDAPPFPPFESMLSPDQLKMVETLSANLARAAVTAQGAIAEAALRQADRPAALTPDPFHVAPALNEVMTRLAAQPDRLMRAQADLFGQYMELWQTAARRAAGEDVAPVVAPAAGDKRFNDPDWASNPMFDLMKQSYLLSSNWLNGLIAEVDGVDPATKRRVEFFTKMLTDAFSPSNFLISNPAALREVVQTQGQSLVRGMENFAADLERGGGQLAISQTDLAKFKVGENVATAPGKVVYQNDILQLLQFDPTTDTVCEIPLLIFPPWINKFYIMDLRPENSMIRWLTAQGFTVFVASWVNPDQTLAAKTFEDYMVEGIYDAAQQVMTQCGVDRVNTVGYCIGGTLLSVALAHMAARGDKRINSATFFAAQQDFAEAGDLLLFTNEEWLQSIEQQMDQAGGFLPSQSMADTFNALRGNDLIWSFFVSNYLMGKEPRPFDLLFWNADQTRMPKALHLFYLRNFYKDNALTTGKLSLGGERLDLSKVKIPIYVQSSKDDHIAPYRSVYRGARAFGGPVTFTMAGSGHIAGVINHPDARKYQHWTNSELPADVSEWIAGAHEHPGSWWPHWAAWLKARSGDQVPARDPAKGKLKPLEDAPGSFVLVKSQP

Columns and labels:
[1] = target: phasin PhaP (CCNA_02242) (Caulobacter crescentus); test: SPR
[2] = target: PHB polymerase PhaC (CCNA_01444), full-length (Caulobacter crescentus); test: SPR

binding [1]	binding [2]	Substance
binds		PHB polymerase PhaC (CCNA_01444), full-length (from UniProt A0A0H3C9D4) (enzyme)
	binds	phasin PhaP (CCNA_02242) (from UniProt A0A0H3CBK2)
